{
  "source": "PubChem BioAssay AID504467",
  "about": "(National Center for Advancing Translational Sciences (NCATS), 2011)",
  "note": "The campaign covered roughly 330,000 compounds. About 7,700 (2.3%) were called active. Inconclusive means that the source gave no clear call. Such entries were picked first, then a sample of the others. The call rests on the fitted dose curve; in most records, active means well fitted inhibition curve with a large enough effect; inconclusive means small, poorly fitted or top-dose-only effect, or effect the other way; inactive means flat fitted curve, though single readings scatter. Potencies beside an inconclusive call are fits to weak or partial responses and may not hold up. Potency means the concentration at half of the fitted maximal effect.",
  "data": [
    {"assay": "qHTS screen for small molecules that inhibit ELG1-dependent DNA repair in human embryonic kidney (HEK293T) cells expressing luciferase-tagged ELG1; further: nearly all actives have a fitted effect of over 55% in size", "details": "HEK293T ELG1-luciferase reporter, luminescence, 16 h, DNA damage induced by 5-fluorouridine; series mostly up to 46.1 µM", "summary_of_the_method": "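5-Fluorouridine DNA damage + compound/DMSO, 2,000 cells/well, 16 h, 37 °C/5% CO2. ONE-Glo, 30 min RT, luminescence. Readout = decrease in reporter signal.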", "values": [
      {"smiles": "O=c1ccc2cc(S(=O)(=O)NCc3ccccc3)ccc2[nH]1", "Potency": "inconclusive: 29.1 µM [activator, single point]"},
      {"smiles": "COc1cccc(C(=O)Cn2c(N3CCCCC3)nc3c2c(=O)n(C)c(=O)n3C)c1", "Potency": "inactive"},
      {"smiles": "c1cnc2c(OCc3nc4ccccc4[nH]3)cccc2c1", "Potency": "inconclusive: 3.26 µM [activator, partial curve]"},
      {"smiles": "CN=c1scc(-c2ccc(OC)cc2)n1/N=C(\\C)c1cccnc1", "Potency": "active: 18.3 µM"},
      {"smiles": "CSc1ccccc1-c1n[nH]c(=S)o1", "Potency": "inactive"},
      {"smiles": "Cc1nn(-c2ccccc2)c2c1C(=O)N(Cc1ccccc1)C(=O)C(C)(C)C2", "Potency": "inconclusive: 20.6 µM [inhibitor, partial curve]"},
      {"smiles": "C=C1SC(Nc2c(C)cccc2C)=NC12CCCCC2", "Potency": "inactive"},
      {"smiles": "N/C(=N/OC(=O)c1ccccc1Cl)c1ncc([N+](=O)[O-])s1", "Potency": "inconclusive: 2.31 µM [activator, full curve]"},
      {"smiles": "O=C(Nc1ccc(F)cc1)N1CCc2ccccc2C1", "Potency": "inconclusive: 18.3 µM [activator, partial curve]"},
      {"smiles": "CCC(Sc1nc(N)cc(=O)[nH]1)C(=O)Nc1cc(C)on1", "note": "(stereo unspecified)", "Potency": "inconclusive: 16.4 µM [activator, partial curve, poor fit]"},
      {"smiles": "NC(=O)c1cc(S(=O)(=O)NCCc2ccc(S(N)(=O)=O)cc2)cs1", "Potency": "inactive"},
      {"smiles": "Cc1c(C(=O)N2CCN(S(=O)(=O)c3ccccc3)CC2)oc2ccccc12", "Potency": "inconclusive: 20.6 µM [inhibitor, single point]"},
      {"smiles": "Cc1cc(NC(=O)c2cc(C(C)C)on2)no1", "Potency": "inconclusive: 23.1 µM [activator, partial curve]"},
      {"smiles": "CCOc1ccc(NC(=O)COc2ccc3c(c2)CCC3)cc1OC", "Potency": "inactive"},
      {"smiles": "O=C(CSc1nc2ccccc2[nH]1)NC1CCCC1", "Potency": "inconclusive: 10.3 µM [activator, partial curve, poor fit]"},
      {"smiles": "COCCNC(=O)/C(C#N)=C/c1c(N2CCN(C)CC2)nc2c(C)cccn2c1=O", "Potency": "inactive"},
      {"smiles": "Cc1ccc(C(=O)CSc2nnc(CNc3nc(-c4ccccc4)cs3)n2C)cc1", "Potency": "inconclusive: 29.1 µM [inhibitor, single point]"},
      {"smiles": "C/C(CC(=O)NC1CCCCC1)=N\\NC(=O)c1ccccn1", "Potency": "inconclusive: 18.3 µM [activator, partial curve]"},
      {"smiles": "CC(/C=N/NC(=O)c1cnccn1)=C\\c1ccco1", "Potency": "inconclusive: 14.6 µM [activator, partial curve]"},
      {"smiles": "O=C(N/N=C/c1ccncc1)c1cc(Br)ccc1OCc1ccccc1", "Potency": "inconclusive: 20.6 µM [inhibitor, single point]"},
      {"smiles": "COc1cccc(/C=C2\\Sc3ccc(C(=O)NCC4CCCO4)cc3N(C)C2=O)c1", "note": "(stereo unspecified)", "Potency": "active: 20.6 µM"},
      {"smiles": "Cc1ccc([C@H]2C(C(=O)O)=CC[C@@H](c3ccc(Cl)cc3)N2S(=O)(=O)c2ccccc2C)cc1", "Potency": "inactive"},
      {"smiles": "Cc1ccc(NC(=O)c2cccc3ccccc23)cc1", "Potency": "inconclusive: 16.4 µM [activator, single point]"},
      {"smiles": "CC1CCCC(C)N1CCCNC(=O)c1nn(C)c2c1CSc1ccccc1-2", "note": "(stereo unspecified)", "Potency": "inconclusive: 25.9 µM [activator, single point]"},
      {"smiles": "C/C(=N/NC(=O)c1cnccn1)c1ccncc1", "Potency": "inconclusive: 29.1 µM [activator, single point]"},
      {"smiles": "Cc1nc(-c2ccccc2)sc1C(N)=O", "Potency": "inconclusive: 18.4 µM [activator, single point]"},
      {"smiles": "CCC(C)NC(=O)c1ccc(COc2ccccc2Cl)cc1", "note": "(stereo unspecified)", "Potency": "inactive"},
      {"smiles": "N#C/C(=C\\c1ccc(N2CCOCC2)c([N+](=O)[O-])c1)c1nc2ccccc2[nH]1", "Potency": "inconclusive: 29.1 µM [inhibitor, single point]"},
      {"smiles": "O=C(NC1CCCCC1)C1CCCN1C(=O)Nc1ccccc1", "note": "(stereo unspecified)", "Potency": "inactive"},
      {"smiles": "Cc1cccc(Cn2c(SCC(=O)Nc3ccccc3)nc3c2c(=O)[nH]c(=O)n3C)c1", "Potency": "inconclusive: 16.4 µM [inhibitor, single point]"},
      {"smiles": "COc1cccc(-c2noc(C3CCCN(C(=O)c4ccc(F)cc4F)C3)n2)c1", "note": "(stereo unspecified)", "Potency": "inactive"},
      {"smiles": "CCN(CC)CCN(C(=O)Cn1nnc(-c2ccc(OC)c(OC)c2)n1)C(C(=O)NC1CCCC1)c1ccc(F)cc1", "note": "(stereo unspecified)", "Potency": "inconclusive: 29.1 µM [activator, single point]"},
      {"smiles": "Cc1oc(-c2ccccc2Cl)nc1CSCC(=O)NC1CC1", "Potency": "inactive"},
      {"smiles": "CCOc1ccc(C(=O)C(C)OC(=O)c2nc(Cl)ccc2Cl)cc1", "note": "(stereo unspecified)", "Potency": "inconclusive: 29.1 µM [activator, single point]"},
      {"smiles": "Cc1c(NC(=O)COC(=O)c2cc3c4ccccc4n(C)c3s2)c(=O)n(-c2ccccc2)n1C", "Potency": "inconclusive: 25.9 µM [inhibitor, partial curve]"},
      {"smiles": "COC(=O)c1cc(C)nc(Sc2ccccc2N)n1", "Potency": "inactive"},
      {"smiles": "Nc1nc(Nc2ccc(Cl)cc2)nc2ccccc12", "Potency": "inconclusive: 0.411 µM [activator, full curve]"},
      {"smiles": "O=C(Nc1nnc(S(=O)(=O)N2CCCCC2)s1)c1cccc(Br)c1", "Potency": "inactive"},
      {"smiles": "Fc1ccc(-c2cn3cc(C(F)(F)F)cc(Cl)c3n2)cc1", "Potency": "inconclusive: 5.17 µM [activator, partial curve]"},
      {"smiles": "Oc1oc(-c2cccc3ccccc23)nc1/C=N/c1nccs1", "Potency": "inactive"},
      {"smiles": "CCOC(=O)N1N=C(c2ccc(C)cc2)CC1(O)C(F)(F)F", "note": "(stereo unspecified)", "Potency": "inconclusive: 1.3 µM [activator, partial curve]"},
      {"smiles": "CCOC(=O)c1sc(=NC(=O)c2cccc(OC)c2)n(C)c1C", "Potency": "inconclusive: 3.66 µM [activator, full curve]"},
      {"smiles": "COc1ccc(S(=O)(=O)NCC2(N3CCOCC3)CCCCC2)cc1OC", "Potency": "inactive"},
      {"smiles": "CC1=NN(C(N)=S)C(=O)C1N=Nc1ccccc1C(=O)O", "note": "(stereo unspecified)", "Potency": "inactive"},
      {"smiles": "Cc1cc(C)n2nc(SCC(=O)NC3CCCC(C)C3C)nc2n1", "note": "(stereo unspecified)", "Potency": "inactive"},
      {"smiles": "CCCCN1C(=N)N([C@@H](CCC)CN2CCC[C@H]2CN2C(N)=NC[C@@H]2Cc2ccccc2)C[C@H]1[C@H](C)CC", "Potency": "inactive"},
      {"smiles": "CN(C)CCNC(=O)c1ccc2c(=O)n(Cc3ccc(Cl)cc3)c(=S)[nH]c2c1", "Potency": "inconclusive: 16.4 µM [activator, partial curve]"},
      {"smiles": "CC1CCCCN1C(=O)c1cc2ccccc2cc1O", "note": "(stereo unspecified)", "Potency": "inactive"},
      {"smiles": "O=C(CCc1ccccc1)Nc1cccc([N+](=O)[O-])c1", "Potency": "inactive"},
      {"smiles": "CC(C)(C)[C@H]1C=C(C(=O)N2CCN(Cc3ccc4c(c3)OCO4)CC2)O[C@@H](OCc2ccc(CO)cc2)C1", "Potency": "active: 5.17 µM"},
      {"smiles": "CCCCn1c(=O)c2ccccc2n2c(=S)[nH]nc12", "Potency": "inactive"},
      {"smiles": "COc1ccc2cc(C(C)=O)c(=O)oc2c1", "Potency": "inactive"},
      {"smiles": "CCOc1ccccc1NC(=O)c1ccccc1-c1nc(-c2ccccc2OC)no1", "Potency": "active: 18.4 µM"},
      {"smiles": "COC(c1ccccc1)c1nnc(CCC(=O)N(C)C(C2CC2)C2CC2)o1", "note": "(stereo unspecified)", "Potency": "inconclusive: 20.6 µM [activator, partial curve]"},
      {"smiles": "COc1ccc(-c2noc(N3CCC(C(=O)Nc4ccc(F)cc4)CC3)n2)cc1", "Potency": "inactive"},
      {"smiles": "Nc1nc(SCc2ccccc2)[nH]c(=O)c1-c1ccccc1", "Potency": "inconclusive: 18.4 µM [activator, partial curve]"},
      {"smiles": "O=C(O)c1ccc(N/N=C/c2ccc(C(F)(F)F)cc2)cc1", "Potency": "inconclusive: 0.164 µM [activator, partial curve]"},
      {"smiles": "O=C(CNC(=O)OCc1ccccc1)NCC(=O)N1CCCC1C(=O)OCc1ccccc1", "note": "(stereo unspecified)", "Potency": "inactive"},
      {"smiles": "Cc1ccc(O)c(CNc2nc3ccccc3n2C)c1", "Potency": "inconclusive: 4.61 µM [activator, partial curve]"},
      {"smiles": "Cc1nc2ccc3[nH]snc3c2n1", "Potency": "inconclusive: 29.1 µM [inhibitor, single point]"},
      {"smiles": "COc1ccc(C(=O)N2CCN(Cc3ccccc3)CC2)cc1[N+](=O)[O-]", "Potency": "inconclusive: 6.51 µM [inhibitor, single point]"},
      {"smiles": "C=CCNC(=S)N/N=C(\\C)c1cccc(NC(C)=O)c1", "Potency": "inactive"},
      {"smiles": "Cc1ccc(/C=N\\NC(=O)c2cncc(Br)c2)o1", "Potency": "inactive"},
      {"smiles": "CC(C)[C@H](NC(=O)[C@H](Cc1ccccc1)n1c(=O)[nH]c2ccccc2c1=O)C(=O)N1CCC[C@H]1C(=O)O", "Potency": "inactive"},
      {"smiles": "COc1ccc(-c2c[n+](CC(=O)N3c4ccccc4Sc4ccccc43)c3n2CCC3)cc1", "Potency": "inconclusive: 4.61 µM [inhibitor, single point]"},
      {"smiles": "Cc1cc(/C=C2/NC(=O)NC2=O)c(C)n1-c1sc2c(c1C#N)CCCC2", "Potency": "inconclusive: 23.1 µM [inhibitor, partial curve]"},
      {"smiles": "CN(C)c1ccc(C=NCCC2(O)CCOC(C)(C)C2)cc1", "note": "(stereo unspecified)", "Potency": "inactive"},
      {"smiles": "O=C(Nc1ccc(NC(=O)c2cccs2)cn1)c1ccco1", "Potency": "inconclusive: 2.31 µM [activator, partial curve]"},
      {"smiles": "Cc1nc(N2CCN(c3ccc(Cl)cc3)CC2)[nH]c(=O)c1C", "Potency": "inactive"},
      {"smiles": "C=CCSc1nnc(NC(=O)C2=COCCO2)s1", "Potency": "inconclusive: 5.17 µM [activator, partial curve]"},
      {"smiles": "O=c1cc(CN2CCc3ccccc32)c2ccc(O)cc2o1", "Potency": "inconclusive: 2.31 µM [inhibitor, partial curve, poor fit]"},
      {"smiles": "CC(=O)c1ccc(OCC(C)Oc2ccc(C#N)cc2)cc1", "note": "(stereo unspecified)", "Potency": "inactive"},
      {"smiles": "COc1ccc(NC(=O)C2CCCCN2S(=O)(=O)c2ccc(F)cc2)cc1", "note": "(stereo unspecified)", "Potency": "inconclusive: 29.1 µM [inhibitor, single point]"},
      {"smiles": "C/C(=N/NC(=O)CNc1ccc(Cl)cc1C)c1ccc(C)cc1", "Potency": "inactive"},
      {"smiles": "COc1ccc(/C=C(/C(=O)NCc2ccccc2)c2ccccc2)cc1", "Potency": "inconclusive: 29.1 µM [inhibitor, partial curve, poor fit]"},
      {"smiles": "C/C(=N\\OC(=O)NC1CCCCC1)c1sc(-c2ccccc2)nc1C", "Potency": "inconclusive: 29.1 µM [inhibitor, single point]"}
    ]}
  ]
}
